The values that follow come from PMC10667515.

The chains behind the UniProt entries cited, without tags or fusion partners.
UniProt O14980: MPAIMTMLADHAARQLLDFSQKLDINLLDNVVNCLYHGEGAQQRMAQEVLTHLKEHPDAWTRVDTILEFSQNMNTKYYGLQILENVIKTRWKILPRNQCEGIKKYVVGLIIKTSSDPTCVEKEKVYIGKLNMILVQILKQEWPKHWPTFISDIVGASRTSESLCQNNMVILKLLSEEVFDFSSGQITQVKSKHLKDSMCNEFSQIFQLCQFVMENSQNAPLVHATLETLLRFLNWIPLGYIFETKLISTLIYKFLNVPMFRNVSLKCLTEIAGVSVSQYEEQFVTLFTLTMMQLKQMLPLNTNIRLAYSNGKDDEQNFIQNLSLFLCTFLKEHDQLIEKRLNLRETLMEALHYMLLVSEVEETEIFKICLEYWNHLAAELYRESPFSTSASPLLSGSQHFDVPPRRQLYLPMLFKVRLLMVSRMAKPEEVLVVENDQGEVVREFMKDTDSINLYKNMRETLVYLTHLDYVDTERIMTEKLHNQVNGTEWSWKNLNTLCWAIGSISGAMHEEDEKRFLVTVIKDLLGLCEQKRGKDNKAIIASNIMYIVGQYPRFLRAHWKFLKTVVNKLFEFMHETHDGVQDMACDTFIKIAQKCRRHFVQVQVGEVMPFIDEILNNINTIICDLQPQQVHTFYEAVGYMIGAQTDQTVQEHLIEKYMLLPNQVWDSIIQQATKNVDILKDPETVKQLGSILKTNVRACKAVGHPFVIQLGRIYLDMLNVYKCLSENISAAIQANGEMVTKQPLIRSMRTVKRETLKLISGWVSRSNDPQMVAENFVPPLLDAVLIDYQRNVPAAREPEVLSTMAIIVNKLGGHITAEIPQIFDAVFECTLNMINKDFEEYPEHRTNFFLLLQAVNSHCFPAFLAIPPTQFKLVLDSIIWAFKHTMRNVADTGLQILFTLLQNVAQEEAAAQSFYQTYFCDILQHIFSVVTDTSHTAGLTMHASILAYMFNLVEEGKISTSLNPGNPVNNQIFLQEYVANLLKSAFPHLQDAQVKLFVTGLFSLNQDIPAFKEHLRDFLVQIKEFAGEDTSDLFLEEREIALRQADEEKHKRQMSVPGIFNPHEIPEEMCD

Test [1] addresses T1, ID1 (construct not told for the experiment) (UniProt P41134).
T1 sequence: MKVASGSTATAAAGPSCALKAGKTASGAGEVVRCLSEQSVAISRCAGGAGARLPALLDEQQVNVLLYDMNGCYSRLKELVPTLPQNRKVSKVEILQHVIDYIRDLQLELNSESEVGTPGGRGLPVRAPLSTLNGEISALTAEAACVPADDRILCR
Put plainly: co-IP; co-IPs among ID1, STAT1 and CRM1 (Supplementary Fig. 5f); cells and constructs not stated.

The target in test [2] is STAT1 (construct not told for the experiment) (UniProt P42224). The description is as above.
For test [3] the target is unchanged. Put plainly: co-IP; STAT1 and CRM1 with or without ID1 (Fig. 6h); the legend does not name the method or the cells.
Test [4] has the same target. Put plainly: proximity ligation; cells not given; with or without ID1 ectopic expression (Fig. 6i); IFN-γ and leptomycin B 100 nM (Fig. 6j); Duolink kit.
Test [5] deals with T2, ID1 truncated mutant I1 (amino acids 1-52) in pEGFP-C1 (UniProt P41134).
T2 sequence: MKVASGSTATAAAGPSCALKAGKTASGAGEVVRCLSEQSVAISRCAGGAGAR
Put plainly: co-IP; truncated mutants of ID1 (I1-I3) against STAT1 and of STAT1 (S1-S6) against ID1 (Supplementary Fig. 5c, d); cells not given; lysate with antibody at 4 °C overnight, Protein A/G Plus-Agarose.

In test [6] the target is T3, ID1 truncated mutant I2 (amino acids 53-104) in pEGFP-C1 (UniProt P41134).
T3 sequence: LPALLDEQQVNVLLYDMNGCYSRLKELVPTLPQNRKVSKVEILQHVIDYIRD
Described as above.

Test [7] deals with T1, ID1 (construct not told for the experiment). The description is as above.
Test [8] has as its target T4, ID1-GFP (full-length ID1 in pEGFP-C1) (UniProt P41134).
T4 sequence: T1 sequence
Put plainly: co-IP; HEK 293T cells transfected with STAT1-DDK and ID1-GFP plasmids; lysate with antibody at 4 °C overnight, Protein A/G Plus-Agarose 2 h, immunoblot. Background: Immunoblotting shows a protein as a band on a membrane.

Test [9] deals with T5, STAT1 (construct not told for the experiment), P42224.
T5 chain: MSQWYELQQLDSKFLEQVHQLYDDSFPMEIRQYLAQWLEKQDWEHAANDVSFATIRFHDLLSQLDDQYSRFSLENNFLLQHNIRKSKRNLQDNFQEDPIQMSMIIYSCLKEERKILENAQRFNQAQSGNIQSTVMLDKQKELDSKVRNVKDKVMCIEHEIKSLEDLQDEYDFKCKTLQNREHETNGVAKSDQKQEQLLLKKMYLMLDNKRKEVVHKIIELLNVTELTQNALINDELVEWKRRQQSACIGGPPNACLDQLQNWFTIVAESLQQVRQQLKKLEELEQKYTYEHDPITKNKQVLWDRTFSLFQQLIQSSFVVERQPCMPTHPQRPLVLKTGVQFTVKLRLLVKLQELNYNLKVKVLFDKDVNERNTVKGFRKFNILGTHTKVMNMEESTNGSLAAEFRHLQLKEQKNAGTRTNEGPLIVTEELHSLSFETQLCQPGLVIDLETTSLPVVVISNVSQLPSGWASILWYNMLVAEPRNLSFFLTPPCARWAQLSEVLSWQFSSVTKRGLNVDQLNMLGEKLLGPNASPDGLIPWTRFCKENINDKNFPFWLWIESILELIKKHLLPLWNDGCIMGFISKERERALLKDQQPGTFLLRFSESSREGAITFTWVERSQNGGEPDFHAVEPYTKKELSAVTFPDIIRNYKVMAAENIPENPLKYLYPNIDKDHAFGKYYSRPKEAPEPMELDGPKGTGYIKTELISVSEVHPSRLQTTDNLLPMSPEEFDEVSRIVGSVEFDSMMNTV
Description: proximity ligation; cells not given; with or without ID1 ectopic expression (Fig. 6i); IFN-γ and leptomycin B 100 nM (Fig. 6j); Duolink kit. Particulars: remark: other sources report otherwise.

No constants are given. Whether binding was seen depends on the method and setting. In cells and extracts the contact can be indirect. Some results given as binding are weak or reduced against the parent protein; the word gives no strength. For part of these data: Where a sequence is shown, tags or fusion partners need not be part of it.

In the case of “Chromosome region maintenance 1 (CRM1) (from UniProt O14980 1-1071)”, the binding entry in test [1], in test [2], in test [3] and in test [4] was “binds” in each case.
For the molecule “STAT1 (construct not told for the experiment) (from UniProt P42224 1-750)”, the binding entry in test [1], in test [5] and in [6] was “binds” each time.
As for “STAT1 truncated mutant S1 (amino acids 1-136) in pEGFP-C1 (from UniProt P42224 1-136) (domain or fragment)”, the binding entry in [7] is “binds”.
Take “STAT1 truncated mutant S3 (amino acids 318-488) in pEGFP-C1 (from UniProt P42224 318-488) (domain or fragment)”: in [7], the binding result is “binds”.
Still for that read-out and setting: the value for “STAT1 truncated mutant S5 (amino acids 577-683) in pEGFP-C1 (from UniProt P42224 577-683) (domain or fragment)” was “binds”.
Consider STAT1-DDK (from UniProt P42224 1-750), for which the binding entry in [8] is recorded as “binds”.

B1: STAT1 (construct not told for the experiment), P42224 1-750 (protein)
chain: T5 chain
In the case of B1, in [9], the binding result is given as “binds”.
